Results on 2 molecules are retold here after the supplement of paper PMC11732987, “Enantioselective OTUD7B fragment discovery through chemoproteomics screening and high-throughput optimisation” (Communications Chemistry, 2025).

SMILES strings stand for the structures. This is one part of the list. The data scatter; read single values as rough.

For one test, the target named is T1, DGKH C647 (UniProt Q86XP1).
T1 sequence (whole entry): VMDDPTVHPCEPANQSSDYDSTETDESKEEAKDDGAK
The test can be described thus: log2 mean competition ratio of IA-DTB cysteine labelling (DMSO/compound) (log2 ratio); higher = stronger cysteine engagement by compound. The settings on record: 50 µM; treatment time: 4 h; cell line lysate: HEK293T. Here is the method:
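IA-DTB competitive cysteine chemoproteomics in HEK293T RIPA lysate. Lysates were treated with compound 29 or 30 at 50 or 200 µM for 4 h, then IA-DTB (500 µM, 1 h), trypsin-digested, NeutrAvidin-enriched and analysed by diaPASEF. Competition ratio = intensity DMSO / intensity compound (n=4 treated, n=64 DMSO); binding: mean log2 CR ≥ 1 and p ≤ 0.05 plus QC filters. Target is the cysteine site.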
For the molecule `O=C(CCl)N[C@@H]1CCCc2ccccc21`, the “log2 mean competition ratio” value was -0.911.

`O=C(CCl)N[C@H]1CCCc2ccccc21`: the “log2 mean competition ratio” value turned out to be 0.142.

Staying with this test, now noted: 200 µM; treatment time: 4 h; cell line lysate: HEK293T.
As for `O=C(CCl)N[C@@H]1CCCc2ccccc21`, the “log2 mean competition ratio” value was -0.453.

Regarding `O=C(CCl)N[C@H]1CCCc2ccccc21`, the “log2 mean competition ratio” value was -0.756.
